Test: general procedure: peptide synthesis; CCBT, N-methylmorpholine
Conditions: late stage modification step, hydrochloride

Row | Substance | step yield (run 1) [%] | step yield (run 2) [%] | step yield (run 3) [%] | step yield (run 4) [%]
1 | 3-(3-n-butylaminopropylamino)propylamino-N-methylbleomycin | 51 | 85 | – | –
2 | 3-[(S)-1'-phenylethylamino]propylamino-N-methylbleomycin | 65 | 8.2 | 92 | 96
